Source: publication PMC12432130
No constants are given. Whether binding was seen depends on the method and setting. Binding seen in cells or lysates may run through a third protein. Some entries that bind do so weakly or less than the wild type. Tags and fused reporters may be left off the sequences shown.

Molecular target: T1, Flag-tagged TTK protein kinase (UniProt P33981)
T1 sequence: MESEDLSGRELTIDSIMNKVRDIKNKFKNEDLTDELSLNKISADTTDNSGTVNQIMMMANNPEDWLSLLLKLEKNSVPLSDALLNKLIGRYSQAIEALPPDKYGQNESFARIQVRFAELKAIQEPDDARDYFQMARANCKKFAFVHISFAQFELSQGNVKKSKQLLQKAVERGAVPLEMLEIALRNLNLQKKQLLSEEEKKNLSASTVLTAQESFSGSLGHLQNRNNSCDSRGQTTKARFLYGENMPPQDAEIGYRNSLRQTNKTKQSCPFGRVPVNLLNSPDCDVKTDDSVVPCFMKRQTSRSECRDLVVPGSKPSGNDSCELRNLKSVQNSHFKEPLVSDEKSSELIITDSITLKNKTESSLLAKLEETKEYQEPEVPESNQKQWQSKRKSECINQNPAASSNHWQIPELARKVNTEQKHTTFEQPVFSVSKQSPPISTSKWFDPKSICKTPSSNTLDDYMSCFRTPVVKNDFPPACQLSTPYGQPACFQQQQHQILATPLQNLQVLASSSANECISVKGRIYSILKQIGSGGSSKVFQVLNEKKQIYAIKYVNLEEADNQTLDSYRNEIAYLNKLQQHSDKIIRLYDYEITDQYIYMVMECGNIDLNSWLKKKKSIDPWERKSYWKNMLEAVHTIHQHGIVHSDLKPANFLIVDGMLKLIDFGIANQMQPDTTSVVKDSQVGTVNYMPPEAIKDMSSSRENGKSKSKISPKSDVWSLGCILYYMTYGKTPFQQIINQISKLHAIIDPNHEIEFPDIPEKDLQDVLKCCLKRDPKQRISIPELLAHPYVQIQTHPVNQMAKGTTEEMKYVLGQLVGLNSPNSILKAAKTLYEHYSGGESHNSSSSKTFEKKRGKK
Experiment: co-IP; Flag-TTK immunoprecipitated from RT-112 and UM-UC-3 cells with an anti-Flag monoclonal antibody; IgG control; partner detected by Western blot with its own antibody

B1: SRSF3 (protein, UniProt P84103 1-164)
chain: MHRDSCPLDCKVYVGNLGNNGNKTELERAFGYYGPLRSVWVARNPPGFAFVEFEDPRDAADAVRELDGRTLCGCRVRVELSNGEKRSRNRGPPPSWGRRPRDDYRRRSPPPRRRSPRRRSFSRSRSRSLSRDRRRERSLSRERNHKPSRSFSRSRSRSRSNERK
**Q.** With B1 as the binder, how does the binding read?
**A.** binds
